No constants are given. Whether binding was seen depends on the method and setting. Binding seen in cells or lysates may run through a third protein. A result given as binding can be weak or reduced; the word gives no strength. Where a sequence is shown, tags or fusion partners need not be part of it.
B1: Flag-tagged E(z) (protein, UniProt Q9VDC6 1-879)
chain: MGSLPQLSIVKGLQQDFVPRALHRIFEEQQLRHADKVALIYQPSTTGQGMAPSQSSYRQMNERANRAARLLVAETHGRFLQPNSDGDFIVAVCMQPSEGLVTTLLAIWKAGGAYLPIDPSFPANRIHHILLEAKPTLVIRDDDIDAGRFQGTPTLSTTELYAKSLQLAGSNLLSEEMLRGGNDHIAIVLYTSGSTGVPKGVRLPHESILNRLQWQWATFPYTANEAVSVFKTALTFVDSIAELWGPLMCGLAILVVPKAVTKDPQRLVALLERYKIRRLVLVPTLLRSLLMYLKMEGGGAAQKLLYNLQIWVCSGEPLSVSLASSFFDYFDEGVHRLYNFYGSTEVLGDVTYFACESKKQLSLYDNVPIGIPLSNTVVYLLDADYRPVKNGEIGEIFASGLNLAAGYVNGRDPERFLENPLAVEKKYARLYRTGDYGSLKNGSIMYEGRTDSQVKIRGHRVDLSEVEKNVAELPLVDKAIVLCYHAGQVDQAILAFVKLRDDAPMVTEMQMEARLKDKLADYMTPQVVILEHVPLLVNGKVDRQALLKTYETANNNEGDSSIVLDFDYSQVPEDLKLTARDLFETVGGVIGRSTRATLAPHSNFYELGGNSLNSIFTVTLLREKGYNIGISEFIAAKNLGEIIEKMAANHDAVQLEEESLNACPHLKMEAVPLRLEHRQEVIDIIVASFYNKADLEQWLKPGVLRTDYSDILNDIWNVLVERDLSFVVYDTNTDRIIGTALNFDARNEPEVDIKSKLLIVFEFLEFCEGPIRDNYLPKGLNQILHSFMMGTAEKLNPRENIACMHFMEHEVLRVAREKQFAGIFTTNTSPLTQQLADVYHYKTLLNFQVNEYVHSDGSRPFGDAPDEQRAIVHWKEVGK
B2: Flag-tagged MOF (protein, UniProt O02193 1-827)
chain: MSEAELEQTPSAGHVQEQPIEEEHEPEQEPTDAYTIGGPPRTPVEDAAAELSASLDVSGSDQSAEQSLDLSGVQAEAAAESEPPAKRQHRDISPISEDSTPASSTSTSSTRSSSSSRYDDVSEAEEAPPEPEPEQPQQQQQEEKKEDGQDQVKSPGPVELEAQEPAQPQKQKEVVDQEIETEDEPSSDTVICVADINPYGSGSNIDDFVMDPDAPPNAIITEVVTIPAPLHLKGTQQLGLPLAAPPPPPPPPAAEQVPETPASPTDDGEEPPAVYLSPYIRSRYMQESTPGLPTRLAPRDPRQRNMPPPAVVLPIQTVLSANVEAISDDSSETSSSDDDEEEEEDEDDALTMEHDNTSRETVITTGDPLMQKIDISENPDKIYFIRREDGTVHRGQVLQSRTTENAAAPDEYYVHYVGLNRRLDGWVGRHRISDNADDLGGITVLPAPPLAPDQPSTSREMLAQQAAAAAAASSERQKRAANKDYYLSYCENSRYDYSDRKMTRYQKRRYDEINHVQKSHAELTATQAALEKEHESITKIKYIDKLQFGNYEIDTWYFSPFPEEYGKARTLYVCEYCLKYMRFRSSYAYHLHECDRRRPPGREIYRKGNISIYEVNGKEESLYCQLLCLMAKLFLDHKVLYFDMDPFLFYILCETDKEGSHIVGYFSKEKKSLENYNVACILVLPPHQRKGFGKLLIAFSYELSRKEGVIGSPEKPLSDLGRLSYRSYWAYTLLELMKTRCAPEQITIKELSEMSGITHDDIIYTLQSMKMIKYWKGQNVICVTSKTIQDHLQLPQFKQPKLTIDTDYLVWSPQTAAAVVRAPGNSG
B3: Flag-tagged Su(z)12 (protein, UniProt Q9NJG9 1-900)
chain: MAPAKKREKDSNPDGSAANGIIGLTHGAPDASNAGSTVPPTAEGQVKLNGHQQEQELFLQAFEKPTQIYRYLRNRHETNPIFLNRTLSYMKERMSRNNKKRISFQVNSMLESITQKSEAVSQNYLHVIYDSLHEKLPARLDNESGEDLLQEQLLCEAGESVSVETTLYKITRSKRKDSTLDFQELLSKCSQIVYNPKDRVGEHATISIPLQTMRPMGEQHTLYKLLFRIKVLSPSTCNDENAETPPNKRSRPNEKMFGSELILYEKSSGFITEGEYEAMLQPLNSTSIKSFSPKKCTWETMPDSYIPLSLTYDVYQQSPMLKFHLTLSNEQLPEMISAPELQRYVQHLDAVAEMNYNNNNYNNNNNCSGLKNGSGGGNSTVCKTTPEHIQIVYNFMYSNNTRQQTEYTQELNCPWCGLDCLRLYALLKHLKLCHARFNFTYQPAGSGARIDVTINDAYDGSYAGSPYDLAGPSGSSFARTCGPVRRTSVTSLMVCRPRRQKTCLDEFLELDEDEISNQRSYITGHNRLYHHTETCLPVHPKELDIDSEGESDPLWLRQKTIQMIDEFSDVNEGEKELMKLWNLHVMRHGFVGDCQLPIACEMFLDAKGTEIVRKNLYRNFILHMCSLFDYGLIAAETVYKTVQKLQGLLSKYAAGQELMQRQREEQLKYWLDVGMHKKQEDPKTLKSPQKPAPPADQASTSSASTSGSGSGSSSMQPPKRMPAHLKRGSAASSPGVQSKGTENGTNGSNSSSSNSKNVAKKSADQPLSTLANTRERRSEYGQKRNVSGSRLAATPASKRKLSSKDNTVLNKRQRYSDGSPGTGIGNGHGGGSGSGANRNKSNNHSLPATSNNASSSSSNSKRAIARRRSTSERTKASGSTGGGAGGVRTRLSVPAKYERR

molecular target: GFP-Bonus (Drosophila); assay: co-IP; GFP-Trap beads from lysate of S2 cells co-expressing GFP-Bonus and a Flag-tagged protein; 20 mM Tris-HCl pH 7.4, 150 mM NaCl, 0.2% NP-40, 0.2% Triton-X100, 5% glycerol, 20 mM NEM; 4 °C; Western blot; lysate without GFP-Bonus as negative control

Row | binding | Binder
1 | binds | B1
2 | binds | B2
3 | binds | B3
